Paper PMC12456220
These are yes or no findings as the source states them, for the method shown. Binding seen in cells or lysates may run through a third protein. Some entries that bind do so weakly or less than the wild type.

Amino acid sequences for entries named in this document (tags omitted).
UniProt P29466: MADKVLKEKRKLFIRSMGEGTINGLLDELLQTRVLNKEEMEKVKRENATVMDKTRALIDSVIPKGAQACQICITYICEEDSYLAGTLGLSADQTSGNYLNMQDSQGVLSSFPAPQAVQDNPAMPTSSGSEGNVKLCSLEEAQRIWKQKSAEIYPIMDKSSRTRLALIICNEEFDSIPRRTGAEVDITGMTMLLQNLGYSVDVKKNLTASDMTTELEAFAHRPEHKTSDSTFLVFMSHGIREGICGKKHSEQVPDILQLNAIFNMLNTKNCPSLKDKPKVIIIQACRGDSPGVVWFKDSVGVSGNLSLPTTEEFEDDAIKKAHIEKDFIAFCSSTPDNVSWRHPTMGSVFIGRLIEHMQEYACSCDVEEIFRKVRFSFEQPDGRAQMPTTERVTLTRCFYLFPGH
UniProt Q7Z434: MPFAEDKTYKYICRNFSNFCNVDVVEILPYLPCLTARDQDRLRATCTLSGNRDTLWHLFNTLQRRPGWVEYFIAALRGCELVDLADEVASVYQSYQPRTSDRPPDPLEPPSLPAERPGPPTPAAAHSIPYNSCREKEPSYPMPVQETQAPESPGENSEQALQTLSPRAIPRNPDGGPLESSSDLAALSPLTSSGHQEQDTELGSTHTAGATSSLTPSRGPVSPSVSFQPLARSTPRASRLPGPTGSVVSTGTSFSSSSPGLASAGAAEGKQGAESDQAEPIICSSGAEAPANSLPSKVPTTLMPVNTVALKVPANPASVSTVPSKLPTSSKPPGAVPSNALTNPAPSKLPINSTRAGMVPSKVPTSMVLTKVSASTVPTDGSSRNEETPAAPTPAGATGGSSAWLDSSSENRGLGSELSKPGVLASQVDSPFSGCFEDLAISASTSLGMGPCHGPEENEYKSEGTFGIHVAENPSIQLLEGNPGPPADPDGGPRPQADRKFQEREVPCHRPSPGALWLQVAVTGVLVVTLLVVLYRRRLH

Biological target: Flag-Caspase-1 (human Caspase-1) (human) (UniProt P29466)
Assay: co-IP

- binding: binds
Substance: H-Myc-MAVS (human MAVS) (from UniProt Q7Z434 1-540)
